PubChem BioAssay AID1224828 – NIAID, 2016

- Aim: 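Find genes required for NF-kappaB p65 moving into the nucleus after LPS in mouse macrophages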 (primary screen)
- Cells: mouse RAW264.7 G9 macrophage reporter cells (GFP-p65, Tnf promoter-mCherry)
- Reagents: siRNA pool against mouse genes, 100 nM
- Duration: 2 days siRNA transfection, then 40 min LPS before fixation
- Conditions: LPS (Salmonella minnesota R595) at 10 ng/ml
- Measurement: 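Imaged p65 nuclear translocation ratio, normalised to the plate median, converted to robust z-scores and averaged across two replicates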
- Direction: p65 translocation robust z-score: higher = more nuclear NF-kappaB p65 after LPS than the plate median; nuclear/cytoplasmic p65 ratio: higher = more nuclear NF-kappaB p65
- Hit rule: 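Called active when z exceeds 3.3 or falls under -1.56 (median of Tlr4 controls), giving activity score of at least 50; no calls for control wells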
- Meaning of the calls: active = hit (p65 shift raised or lowered); inactive = no clear change
In all, the deposit lists about 17,000 reagents; shown is a part drawn at random. 762 of all reagents (4.5%) count as active. 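Active calls include both raised and lowered p65 entry, mostly lowered; wells with fewer than 50 cells lack a z-score.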 The raw values are shown without normalisation. A number with no mark means an inactive call. The numbers tell different reagents against one gene apart. Reagent sequences are not shown.

The opening 2 entries, to show the layout:
Rfx3 → p65 translocation robust z-score: 2.5; nuclear/cytoplasmic p65 ratio, rep 1: 1.85; nuclear/cytoplasmic p65 ratio, rep 2: 1.89; low cell count flag: enough cells to score
Obp1a → p65 translocation robust z-score: 0.64; nuclear/cytoplasmic p65 ratio, rep 1: 1.96; nuclear/cytoplasmic p65 ratio, rep 2: 1.5; low cell count flag: enough cells to score

Main list, from the first entry:
Rfx3 → p65 translocation robust z-score: 2.5; nuclear/cytoplasmic p65 ratio, rep 1: 1.85; nuclear/cytoplasmic p65 ratio, rep 2: 1.89; low cell count flag: enough cells to score
Obp1a → p65 translocation robust z-score: 0.64; nuclear/cytoplasmic p65 ratio, rep 1: 1.96; nuclear/cytoplasmic p65 ratio, rep 2: 1.5; low cell count flag: enough cells to score
Serpinf1 → p65 translocation robust z-score: -0.31; nuclear/cytoplasmic p65 ratio, rep 1: 1.45; nuclear/cytoplasmic p65 ratio, rep 2: 1.56; low cell count flag: enough cells to score
Ints6l → p65 translocation robust z-score: -0.05; nuclear/cytoplasmic p65 ratio, rep 1: 1.37; nuclear/cytoplasmic p65 ratio, rep 2: 1.44; low cell count flag: enough cells to score
Tmem121 → p65 translocation robust z-score: -1.12; nuclear/cytoplasmic p65 ratio, rep 1: 1.39; nuclear/cytoplasmic p65 ratio, rep 2: 1.31; low cell count flag: enough cells to score
Eva1b → nuclear/cytoplasmic p65 ratio, rep 1: 1.05; nuclear/cytoplasmic p65 ratio, rep 2: 1.66; low cell count flag: fewer than 50 cells per well; well left out of scoring
Or2at1 → nuclear/cytoplasmic p65 ratio, rep 1: 1.44; nuclear/cytoplasmic p65 ratio, rep 2: 1.27; low cell count flag: fewer than 50 cells per well; well left out of scoring
Arid4b → p65 translocation robust z-score: -0.01; nuclear/cytoplasmic p65 ratio, rep 1: 1.69; nuclear/cytoplasmic p65 ratio, rep 2: 1.55; low cell count flag: enough cells to score
Mamstr → p65 translocation robust z-score: -0.43; nuclear/cytoplasmic p65 ratio, rep 1: 1.37; nuclear/cytoplasmic p65 ratio, rep 2: 1.33; low cell count flag: enough cells to score
Ikbkb → p65 translocation robust z-score: 0.68; nuclear/cytoplasmic p65 ratio, rep 1: 2.79; nuclear/cytoplasmic p65 ratio, rep 2: 1.46; low cell count flag: enough cells to score
Cnmd → p65 translocation robust z-score: 0.63; nuclear/cytoplasmic p65 ratio, rep 1: 1.54; nuclear/cytoplasmic p65 ratio, rep 2: 1.52; low cell count flag: enough cells to score
Tmem140 → p65 translocation robust z-score: -0.14; nuclear/cytoplasmic p65 ratio, rep 1: 1.51; nuclear/cytoplasmic p65 ratio, rep 2: 1.43; low cell count flag: enough cells to score
Pogk → p65 translocation robust z-score: -0.88; nuclear/cytoplasmic p65 ratio, rep 1: 1.22; nuclear/cytoplasmic p65 ratio, rep 2: 1.15; low cell count flag: enough cells to score
Hcar2 → p65 translocation robust z-score: -0.92; nuclear/cytoplasmic p65 ratio, rep 1: 1.41; nuclear/cytoplasmic p65 ratio, rep 2: 1.41; low cell count flag: enough cells to score
Sdha → p65 translocation robust z-score: -0.32; nuclear/cytoplasmic p65 ratio, rep 1: 1.44; nuclear/cytoplasmic p65 ratio, rep 2: 1.57; low cell count flag: enough cells to score
Hesx1 → p65 translocation robust z-score: 0.57; nuclear/cytoplasmic p65 ratio, rep 1: 1.42; nuclear/cytoplasmic p65 ratio, rep 2: 1.54; low cell count flag: enough cells to score
Kank2 → p65 translocation robust z-score: -0.13; nuclear/cytoplasmic p65 ratio, rep 1: 1.63; nuclear/cytoplasmic p65 ratio, rep 2: 1.61; low cell count flag: enough cells to score
Chkb → p65 translocation robust z-score: -0.8; nuclear/cytoplasmic p65 ratio, rep 1: 1.58; nuclear/cytoplasmic p65 ratio, rep 2: 1.27; low cell count flag: enough cells to score
9430077A04Rik → p65 translocation robust z-score: -0.73; nuclear/cytoplasmic p65 ratio, rep 1: 1.32; nuclear/cytoplasmic p65 ratio, rep 2: 1.45; low cell count flag: enough cells to score
Col4a4 #1 → p65 translocation robust z-score: -1.51; nuclear/cytoplasmic p65 ratio, rep 1: 1.32; nuclear/cytoplasmic p65 ratio, rep 2: 1.13; low cell count flag: enough cells to score
Col4a4 #2 → nuclear/cytoplasmic p65 ratio, rep 1: 1.03; nuclear/cytoplasmic p65 ratio, rep 2: 2.26; low cell count flag: fewer than 50 cells per well; well left out of scoring
